The nature of the assay: qHTS Assay for Modulators of Lamin A Splicing. Conditions: HeLa LMNA splicing GFP/RFP minigene ratio, 48 h. In outline:
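S3 HeLa cells stably expressing lamin A-EGFP splicing minigene plus DsRed2, 600 cells/well, 48 h compound exposure at 37C. Laser-scanning cytometry; analysed as GFP (500-530 nm)/RFP (575-640 nm) total intensity ratio; 0.5% DMSO vehicle.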
Background: Quantitative high-throughput screening tests each substance at several concentrations.

[1] abbreviates: measured here: RFP viability control channel.
The mark [2] stands for this setting: measured here: GFP splicing reporter channel.

The other results are listed elsewhere or left out. Shown are side measurements of this screen, not its main read-out; they come without a call. The list favours compounds with an active or inconclusive main result. The note in brackets gives the kind of curve behind each potency; many fits are weak.

With `O=C(Nc1cccc(Cl)c1)Nc1cc(S(=O)(=O)N2CCCCC2)ccc1Cl`, the AC50 under setting [1] was 25.1 µM [rising, single point]. Take `COCc1nc2ccccc2n1Cc1ccc(Br)cc1`: the concentration at half-maximal activity (AC50) under setting [1] was 35.5 µM [rising, single point]. `Cc1ccccc1C(=O)Nc1sc(C)c(C)c1C(=O)c1ccccc1`: the AC50 under setting [2] is 25.1 µM [falling, single point]. Take `COC(=O)c1[nH]c2cc(C)ccc2c1NC(=O)CN1CCN(c2ccccc2OC)CC1`: the AC50 under setting [1] is 7.08 µM [rising, full curve, poor fit]. Same read-out and setting: to `O=S(=O)(c1cccc(NC(=S)N2CCN(c3cccc(Cl)c3)CC2)c1)C(F)F` belongs 11.2 µM [rising, partial curve]; to `CC(C)CCCCCCNC(=S)Nc1ccc(S(=O)(=O)N2CCOCC2)cc1`, 31.6 µM [rising, single point]; to `COc1ccc(Cn2c(-c3ccc(Br)cc3)c[n+]3ccccc23)cc1`, 7.94 µM [rising, partial curve, poor fit]. Still for that read-out and setting: to `CC1CCCCN1CCn1cnc2c([nH]c3ccccc32)c1=O` (configuration not stated) belongs 22.4 µM [rising, single point]; to `Cc1cnc(C(=O)NCCc2ccc(S(=O)(=O)NC(=O)NC3CCCCC3)cc2)cn1`, 0.0891 µM [rising, full curve, poor fit]. Take `O=C(Nc1ccc(Cl)cc1)N1CCC(CO)(Cc2ccccc2)CC1`: the AC50 under setting [2] was 10 µM [falling, partial curve, poor fit].

For `COc1ccc(-c2cn[nH]c2-c2ccc(OCc3ccc([N+](=O)[O-])cc3)cc2O)cc1`, the concentration at half-maximal activity (AC50) under setting [1] is 10 µM [falling, single point]. The same measure, in the same setting: to `CCOC(=O)C1CCCN(C(=O)c2sc3nc(-c4ccc(F)cc4)cn3c2C)C1` (configuration not stated) belongs 0.01 µM [falling, full curve, poor fit]. As to `c1ccc(C2=Nn3c(nnc3-c3n[nH]c4c3CCC4)SC2)cc1`, the half-maximal activity concentration (AC50) under setting [1] was 7.94 µM [rising, partial curve]. For the compound `Fc1ccc(Nc2nc(N/N=C/c3ccco3)nc(N3CCCCC3)n2)cc1`, the AC50 under setting [1] was 35.5 µM [rising, single point]. As for `Oc1ccc(Br)cc1/C=N/n1cnc2ccccc21`, the concentration at half-maximal activity (AC50) under setting [1] was 17.8 µM [rising, single point]. For the compound `O=C(c1ccccc1)c1c[nH]c(C(=O)NCc2cccnc2)c1`, the concentration at half-maximal activity (AC50) under setting [2] is 2 µM [falling, partial curve]. On the same count and under the same terms, to `CC(=O)c1cccc(NC(=O)c2sc(-n3nc(C)c(CCC(C)C)c3C)nc2C)c1` belongs 5.62 µM [rising, single point]; to `COc1ccc(NS(=O)(=O)c2ccc3c(c2)Cc2ccccc2-3)cn1`, 2 µM [rising, full curve]. As for `Cc1noc(C)c1CSCC(=O)N1CCN(c2ccc([N+](=O)[O-])cc2)CC1`, the half-maximal activity concentration (AC50) was 12.6 µM [rising, single point] under setting [2] and 15.8 µM [rising, partial curve] under setting [1]. With `COc1ccc(N2CC(NC(=O)Cc3cccs3)CC2=O)cc1` (configuration not stated), the AC50 reads like this: under setting [2], 1.26 µM [falling, partial curve, poor fit]; under setting [1], 0.00501 µM [falling, full curve, poor fit]. In the case of `CCCCNc1ncnc2c1cnn2-c1ccccc1`, the concentration at half-maximal activity (AC50) under setting [1] is 35.5 µM [rising, single point]. Turning to `Cc1nc2ncccn2c1-c1csc(Nc2ccc(N(C)C)cc2)n1`, the half-maximal activity concentration (AC50) under setting [2] was 0.00501 µM [falling, full curve, poor fit]. For the compound `COc1ccc(Cl)cc1NC(=O)CSc1nc2c([nH]c3ccccc32)c(=O)n1-c1ccccc1`, the concentration at half-maximal activity (AC50) is, setting by setting: under setting [2], 31.6 µM [falling, partial curve, poor fit]; under setting [1], 11.2 µM [falling, partial curve]. Turning to `Cc1cccc(-c2nnc(NC(=O)c3ccc(Cl)cc3)o2)c1`, under setting [1], the AC50 is 1.78 µM [rising, partial curve, poor fit].

On to `O=C(CSc1nnc(-c2ccccc2Br)o1)N1CCN(C(=O)c2ccco2)CC1`, for which the AC50 under setting [2] is 4.47 µM [rising, partial curve, poor fit]. Turning to `Cc1ccc(S(=O)(=O)N2CCN(c3ccc(C(=O)N4CCOCC4)cc3[N+](=O)[O-])CC2)cc1`, the half-maximal activity concentration (AC50) under setting [2] is 12.6 µM [rising, partial curve] and the concentration at half-maximal activity (AC50) under setting [1] was 35.5 µM [rising, single point]. As to `CCC(=O)N1CCN(c2ccccc2NC(=S)NC(=O)c2cccc([N+](=O)[O-])c2)CC1`, the AC50 under setting [2] was 1 µM [falling, full curve, poor fit].

Take `CCC1=NN(C(=O)c2cccc(Br)c2)C(O)(c2ccc(Br)cc2)C1` (configuration not stated): the AC50 under setting [1] was 25.1 µM [rising, single point].

For the compound `Cc1nn(C(C)C(=O)NCc2ccco2)c(C)c1[N+](=O)[O-]` (configuration not stated), under setting [2], the AC50 was 0.562 µM [rising, single point]. Consider `COc1ccc(CN2CCNC(=O)C2CC(=O)NCCSc2nccn2C)c(OC)c1` (configuration not stated), for which the AC50 under setting [1] was 0.2 µM [falling, full curve]. Turning to `C/C(=N\NC(=S)NC1CCCCC1)c1ccccc1`, the concentration at half-maximal activity (AC50) under setting [1] was 6.31 µM [rising, full curve]. `O=C(NCc1ccc(F)cc1)c1cnc(N2CCOCC2)c2ccccc12`: the AC50 under setting [2] is 0.282 µM [rising, partial curve].

Take `COc1ccc(Cn2cc(C(=O)c3ccccc3)c(=O)c3cc(OC)ccc32)cc1`: the AC50 under setting [1] is 1.58 µM [rising, partial curve, poor fit]. On to `CC1CCCCN1C(=O)c1ccc(NC(=O)c2ccccc2Cl)cc1` (configuration not stated), for which, under setting [2], the AC50 was 0.224 µM [falling, full curve]. For `Cc1ccc(C(=O)NNC2=Nc3cccc4cccc2c34)cc1`, the AC50 under setting [1] was 7.94 µM [rising, partial curve].

Turning to `O=C(NNc1nc(-c2ccc(Br)cc2)cs1)c1ccco1`, the concentration at half-maximal activity (AC50) under setting [1] was 1.26 µM [falling, single point]. For `COc1ccc(CN2CCn3ncc(C(=O)Nc4ccccc4)c3C2=O)cc1`, the half-maximal activity concentration (AC50) under setting [1] is 0.316 µM [falling, full curve, poor fit]. Regarding `CCOC(=O)C1=C(CN2CCN(c3ccc(F)cc3)CC2)NC(=O)NC1c1cccs1` (configuration not stated), the concentration at half-maximal activity (AC50) is 35.5 µM [rising, single point] under setting [2] and 14.1 µM [rising, single point] under setting [1]. For `COc1cc2c(cc1OC)-c1cc3ccc4c(c3c[n+]1CC2)OCO4`, the AC50 runs as follows: under setting [2], 6.31 µM [rising, full curve]; under setting [1], 10 µM [rising, partial curve]. As for `CCOc1ccc(/C=C2/SC(=O)NC2=S)cc1`, the AC50 is 35.5 µM [falling, single point] under setting [2] and 35.5 µM [falling, single point] under setting [1]. Regarding `CN(/N=C/c1cccnc1)C1=NS(=O)(=O)c2ccccc21`, the AC50 is 14.1 µM [falling, partial curve] under setting [2] and 7.94 µM [falling, partial curve, poor fit] under setting [1].

On to `CC(=O)Nc1ccc(NC(=O)C2CCN(S(=O)(=O)c3ccc4c(c3)CCCC(=O)N4)CC2)cc1`, for which the AC50 under setting [2] was 0.00316 µM [rising, full curve, poor fit] and the concentration at half-maximal activity (AC50) under setting [1] was 0.0447 µM [rising, full curve, poor fit]. As to `CCN1CCN(Cc2ccc3c(c2)Cc2ccccc2-3)CC1`, the AC50 under setting [2] was 10 µM [rising, partial curve]. Regarding `Cn1nc(CC(=O)NCc2ccc(F)cc2)c2ccccc2c1=O`, the AC50 under setting [1] was 11.2 µM [rising, partial curve].

`O=C(CN1CCN(Cc2ccc(Cl)cc2)CC1)N/N=C/C=C/c1ccccc1[N+](=O)[O-]`: the concentration at half-maximal activity (AC50) is 10 µM [rising, partial curve] under setting [2] and 14.1 µM [rising, partial curve] under setting [1]. With `COc1ccc(Sc2ncnc3onc(C)c23)cc1`, the AC50 under setting [2] was 0.00708 µM [falling, full curve, poor fit]. On to `Cc1ccc(-c2nnc(Oc3cccc(C)c3)c3ccccc23)cc1`, for which the AC50 is, setting by setting: under setting [2], 28.2 µM [falling, single point]; under setting [1], 35.5 µM [falling, single point]. Take `CC1OC(Nc2ccc(N=Nc3ccccc3)cc2)C(O)C(O)C1O` (configuration not stated): the half-maximal activity concentration (AC50) under setting [2] is 1.58 µM [falling, full curve].

Take `CCOc1ccc(CNC(=O)C(CC)n2nc(C)n3c(cc4occc43)c2=O)cc1OC` (configuration not stated): the AC50 under setting [1] is 14.1 µM [rising, partial curve, poor fit].

Regarding `Cc1cccn2c(N)c(-c3ccccc3)nc12`, the concentration at half-maximal activity (AC50) under setting [2] is 14.1 µM [rising, single point]. As to `NS(=O)(=O)c1cccc(NC(=O)COC(=O)/C(=C/c2cccs2)c2cccs2)c1`, the concentration at half-maximal activity (AC50) under setting [1] is 22.4 µM [rising, single point].

Turning to `O=C(C(c1ccccc1)c1ccccc1)N1CCN(Cc2ccc(Br)cc2)CC1`, the AC50 under setting [1] was 15.8 µM [rising, single point]. Take `COc1ccccc1-c1nnc(SCC(=O)NCc2c(C)c(Cl)cc(C(C)C)c2O)o1`: the half-maximal activity concentration (AC50) under setting [1] is 14.1 µM [rising, single point]. Consider `Cc1nn(-c2ccccc2)c(Cl)c1CN(C(=O)CCl)c1cccc2ccccc12`, for which the concentration at half-maximal activity (AC50) reads like this: under setting [2], 35.5 µM [falling, single point]; under setting [1], 35.5 µM [falling, single point]. Regarding `COc1ccc(N2CCc3c(C)nc4c(OC)cccc4c32)cc1`, the concentration at half-maximal activity (AC50) under setting [1] is 22.4 µM [rising, partial curve, poor fit]. On the same count and under the same terms, to `O=S(=O)(c1ccc2c(c1)OCCO2)N1CCC(c2nc3ccc(Cl)cc3[nH]2)CC1` belongs 28.2 µM [rising, single point]. For `Cc1[nH]c2ccccc2c1-c1ccc(Cl)nn1`, the AC50 is 10 µM [falling, partial curve] under setting [2] and 7.08 µM [falling, partial curve] under setting [1]. Regarding `Cc1cccc2nc(CSc3nc4[nH]ncc4c(=O)n3-c3ccccc3Cl)cc(=O)n12`, the half-maximal activity concentration (AC50) runs as follows: under setting [2], 0.141 µM [rising, full curve, poor fit]; under setting [1], 31.6 µM [rising, single point].

The term AC50 denotes the concentration giving half of the maximal activity seen.

Source of the values: PubChem BioAssay AID1487 (National Center for Advancing Translational Sciences (NCATS), 2009).
